Primary screen of a compound library

A: 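Whole-cell assay for inhibitors of Mycobacterium tuberculosis growth, labelled Cornell in the record; the read-out is not stated. The concentration is filed as 10 mM, unlikely as a test dose, so the dose is not known. The record gives no direction; compounds strong in two other growth screens of this library score well above the rest, so higher reads as stronger inhibition. Size under these conditions: about 53,000 compounds, about 900 of them at 50% or above in at least one test.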
B: 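Assay on Mycobacterium tuberculosis, filed only as a heat shock assay from Cornell; the read-out is not stated. The concentration is filed as 10 mM, unlikely as a test dose, so the dose is not known. The record gives no direction; compounds that gave an IC50 in retests scored well above the rest, so higher reads as stronger inhibition. About 69,000 compounds were tested under these conditions; 1.4% (about 930) showed 50% or more at least once.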

Each number is a percent effect as filed.
The controls that fix the scale are not given in the record; negative values are as filed.
Compounds were drawn at random from those tested, without regard to their results.
A dash means the value is not listed here; it may have been measured.

Compound,A,B
c1ccc(-n2nnnc2CN2CCCC(Cn3cncn3)C2)cc1 (stereo unspecified),-,9.429
Cn1cccc1C(=O)N1CCC2(CC1)CC(N1CCOCC1)C2.O=C(O)C(F)(F)F,13.63,-0.4449
NCc1ccc(Oc2cccc(Cl)c2Cl)cc1,19.03,-9.35
O=C(C1CCCC1)N1CC2(CCN(C3COC3)C2)OCc2ccccc21 (stereo unspecified),-,-25.52
CN(Cc1ccc(F)cc1)CC1(O)CCCN(CC(C)(C)C)C1=O (stereo unspecified),15.79,3.242
CN(Cc1cccc(F)c1)C(=O)CN1CCOC(Cn2cccn2)C1 (stereo unspecified),6.317,15.16
N#Cc1ccccc1N1CCCN(C(=O)CCc2ccsc2)CC1,-,-6.922
Cc1cc(NC(=O)NCC2CCN(C(C)C)C2)no1 (stereo unspecified),-9.483,-16.23
[H][C@]12CN(Cc3nc(C)c[nH]3)CC[C@@]1(O)CCN(C(=O)C1CCCC1)C2,-71.43,-28.74
O=C(O)C(F)(F)F.O=C(O)C(F)(F)F.O=C(O)C(F)(F)F.[H][C@@]12CCN(Cc3cccnc3)C[C@]1([H])[C@@H](CN(C)Cc1ccco1)OC2,-13.57,1.562
COc1ccc(CNC(=O)Nc2ccc(CN3CCOC3=O)cc2)cc1,-16.53,0.1001
CC(C)C1CCC(N2CCN(CCCS(C)(=O)=O)CC2)CC1 (stereo unspecified),17.4,-34.33
CCOCC(=O)Nc1cccnc1-n1ccnc1C,45.44,3.015
O=C(O)C1c2nc[nH]c2CCN1Cc1ccccc1-c1ccccc1 (stereo unspecified),-2.831,10.77
O=C(O)C(F)(F)F.[H][C@]12CCN(CC3CC3)C[C@]1([H])CN(c1ncc(C)cn1)C2,-14.37,-11.41
CC1(C)Cc2nc(C(C)(C)C)ncc2C(NC(=O)Cc2nnn[nH]2)C1 (stereo unspecified),-15.79,-15.98
Cc1ccc(CNC(=O)c2c[nH]nc2NC(=O)C2CCC2)cc1,15.67,-4.699
CCn1nc(C)cc1C(=O)OCC1CC(=O)N(Cc2ccccc2)C1 (stereo unspecified),-,-3.02
Cc1cc(C)c(CNC(=O)NCC2COc3ccccc3C2)c(=O)[nH]1 (stereo unspecified),-,-14.71
O=C(O)C(F)(F)F.c1cnc(N2CCOCC3(CN(Cc4ccsc4)CCO3)C2)nc1 (stereo unspecified),10.84,1.001
[H][C@@]12CNC(=O)N1CCN(Cc1ccccn1)C2,-9.863,-7.554
COc1cccc(CC(C)NC(=O)NC(C)C)c1 (stereo unspecified),44.88,-3.962
CC(C)CNC(=O)N1CCOC2(CCNCC2)C1,-3.113,-6.724
CN(C)Cc1nc(-n2cnc(C(=O)NC3CCCC3)c2)n2ccccc12,-11.28,47.81
Cc1ccc(C(=O)NS(=O)(=O)c2ccccc2Br)c(=O)[nH]1,-,-8.665
Cc1c(CNCc2nn(-c3ccccc3)c3c2CCC3)cc(C#N)n1C,0.6388,24.96
CCN(Cc1ccc2c(c1)OCCO2)C(=O)NCCc1cnn(C)c1,-,0.7412
COc1ccc(CCN)cc1-c1ccc(O)cc1,18.79,21.35
COc1ccccc1N1CCN(Cc2ncc(C)c(OC)c2C)CC1=O,-52.98,18.05
Cc1nc(C(C)NC(=O)NCc2nccn2CC(C)C)cs1 (stereo unspecified),19.31,0.1192
[H][C@]12CC[C@]([H])(CN(C(=O)N(C)C)C1)N(Cc1ccc3nsnc3c1)C2,8.969,14.32
O=C(NCC1CCOC1)c1cc(-c2cccc(Cl)c2)on1 (stereo unspecified),14.76,26.06
CN(Cc1ccc(CCC(C)(C)O)cc1)CC1(CO)CC1,3.977,-21.33
O=C(CNc1cc2c(cc1Br)OCCO2)NC1CCS(=O)(=O)C1 (stereo unspecified),29.12,27.46
COc1ccc(/C=C/CN2CCCC3(C2)CN(C)C(=O)O3)cc1 (stereo unspecified),-,-24.74
Cc1cncc(CN2C[C@@H](O)[C@H](Oc3ccccc3)C2)c1,-13.69,-18.46
Cc1cc(N2CCOCC2)ccc1NC(C)c1nc(C(C)C)no1 (stereo unspecified),72.08,45.07
CC(C)(O)CCc1ccc(C(=O)NCC2CCCOC2)cc1 (stereo unspecified),-0.5796,-11.88
COc1cccc(COCC(=O)N2CCCC(n3ccnc3C)C2)c1 (stereo unspecified),7.846,-23.34
CC1CN(Cc2noc(C3CC3)n2)CCN1Cc1nccn1C (stereo unspecified),-9.009,-7.277
NCC1CN(C(=O)Cn2ncc(N3CCCCC3)cc2=O)CCO1 (stereo unspecified),-29.28,18.14
COc1cc(CNCCc2cnn(C)c2)cc2c1OCO2,-,5.14
O=C(O)C(F)(F)F.O=C(O)C(F)(F)F.c1cnc(N2CCC3(CCN(CC4CCOCC4)CC3)C2)nc1,-,-34.58
Cc1ccc2c(c1)N(C(=O)C1CCCOC1)CCC2 (stereo unspecified),17.01,10.43
COc1ccccc1-c1cccc(C2CCCN(C3CCOCC3)C2)n1 (stereo unspecified),9.954,-18.99
O=S(=O)(C/C=C/c1ccccc1)Cc1nc(C2CC2)no1,25.67,19.84
CCc1nc(CN2CCCC(NCc3ncc(C(C)(C)C)o3)C2)no1 (stereo unspecified),-,-1.282
CC(C)(C)n1nc(C(=O)NCC2(C(N)=O)CCOCC2)cc1C1CC1,-10.25,4.935
CN1CCC2(CC1)CN(C)C(=O)C[C@@H]2C(F)(F)F,29.19,-25.01
CC(=O)N1CCC(NC(=O)NCCCc2cn[nH]c2C)CC1,-6.388,9.618
Cn1cc(NC(=O)Nc2ccc3c(c2)OCO3)cn1,-3.482,10.43
CCC(CC)C(O)CNC(=O)Nc1cccc(-c2nccn2C)c1 (stereo unspecified),33.26,7.333
CC(C(=O)NCc1cccs1)N1CCN(Cc2nccn2C)CC1 (stereo unspecified),-48.83,-12.87
Cc1cccc(CN2CCOCC3(CCN(C4CCOCC4)C3)C2)n1.O=C(O)C(F)(F)F.O=C(O)C(F)(F)F.O=C(O)C(F)(F)F (stereo unspecified),13.41,-25.06
[H][C@]12CN(Cc3cccc(F)c3F)C[C@]1([H])N(C1CCOCC1)C(=O)CO2,-21.84,-44.36
CNC(=O)CCS(=O)(=O)Cc1coc(-c2ccc(F)cc2)n1,-,-20.65
CC(c1cc(O)nc(NC2CCCC2)n1)n1ncc2ccccc2c1=O (stereo unspecified),23.95,-10.39
O=C(O)C(F)(F)F.O=C(O)C(F)(F)F.c1csc(CN2CCCC3(COCCN(Cc4c[nH]nn4)C3)C2)c1 (stereo unspecified),3.177,-47.9
Cc1nnc(SC2CCc3ccccc3NC2=O)n1C (stereo unspecified),27.95,-18.54
O=C(NCCn1ccc(-c2ccccn2)n1)C1CC1,26.68,-1.984

Some entries from above, unchanged:

For CN1CCC2(CC1)CN(C)C(=O)C[C@@H]2C(F)(F)F the result was A: 29.19%; B: -25.01%.
For CC(c1cc(O)nc(NC2CCCC2)n1)n1ncc2ccccc2c1=O (stereo unspecified) the result was A: 23.95%; B: -10.39%.
For CC(=O)N1CCC(NC(=O)NCCCc2cn[nH]c2C)CC1 the result was A: -6.388%; B: 9.618%.
For COc1ccc(CNC(=O)Nc2ccc(CN3CCOC3=O)cc2)cc1 the result was A: -16.53%; B: 0.1001%.
For [H][C@]12CC[C@]([H])(CN(C(=O)N(C)C)C1)N(Cc1ccc3nsnc3c1)C2 the result was A: 8.969%; B: 14.32%.

Data taken from ChEMBL document CHEMBL3988442, “University of Dundee, Small-Polar-MMV Screening Library” (2021).